US20070026090A1, “Treatment and prevention of inflammatory disease and mitochondrial dysfunction with high dose selenium” (priority 2003, published 2007)
For at least one compound, name, drawing or mass did not settle the structure.

Tests used:
[1] = test system: mitochondrial DNA (D-loop region); experiment: Mitochondrial DNA analysis in the colon (D-loop PCR); type: in vivo, rat; details: 24 h after TNBS; supplemented vs unsupplemented (FIG. 6)
Procedure: Mitochondrial DNA analysis in the colon: Tissue content of mitochondrial DNA was determined using specific primers for the D-loop region in the mitochondrial DNA. Mitochondrial colon tissue genomic DNA, was prepared using the Promega Wizard Genomic DNA Purification Kit (Promega Corp, Madison, Wis.). Mitochondrial DNA was amplified by the PCR reaction: Twenty cycles were used for the amplification with 25 ng total tissue DNA as template. Saturation in intensity of PCR products was observed after 24 cycles.
Primers: Left (sense) 5′-[…]-3′ (SEQ ID NO:1), corresponding to nucleotides 468 to 489 of rat mitochondrial D-loop region DNA (GenBank Accession No. X52757.1).
Right (antisense) 5′-[…]-3′ (SEQ ID NO:2) corresponding to nucleotides 988 to 967 of rat mitochondrial D-loop DNA (GenBank Accession No. X52757.1).
The expected PCR product was 520 bp. Actual PCR product was approximately 520 bp, measured on 1.25% agarose gel in TAE containing ethidium bromide.

[2] = test system: 18S RNA and GAPDH; experiment: Housekeeping transcripts 18S and GAPDH in colon tissue (RT-PCR); type: in vivo, rat; details: supplemented rats (FIG. 7A)
[3] = test system: J774.2 macrophages; experiment: Intracellular ROS (H2O2) production, DCF fluorescence; type: cell-based, murine
Procedure: Cell culture: Murine J774.2 macrophages (kindly provided by Prof. Dov Zipori from the Weizmann Institute of Science) were grown in RPMI medium supplemented with 10% (w/v) fetal calf serum, penicillin (100 U/ml), streptomycin (100 μg/ml) and 1× glutamine at 37° C. in a humidified atmosphere consisting of 95% air and 5% CO2. Experiments were performed on cells at 60% confluence.
Intracellular Radical Oxygen Species (ROS) (H2O2): Intracellular ROS were detected using dihydrodichlorofluorescein (H2DCF-DA). Cells exposed to different treatments were washed three times with PBS. Cells were centrifuged (2000 RPM, 5 min), resuspended in PBS and incubated with 25 μM H2DCF-DA for 30 min at 37° C. To detect intracellular fluorescence, the fluorochrome-loaded cells were excited using a 488-nm argon-ion laser in a flow cytometer. The dichlorofluorescein (DCF) emission was recorded at 530 nm. Data were collected from at least 10,000 cells. Alternatively, DCF fluorescence was recorded using a microfluorometer plate reader (GENios, Tecan, Austria). Cells were washed twice with PBS, then 25 μM H2DCF-DA was added and cells incubated for 30 min at 37° C. Following an additional wash, cells were lysed with PBS-0.2% Triton-X 100. Total fluorescence was recorded and calibrated according to protein content.

[4] = test system: cytochrome c; experiment: Cytochrome c protein in colon tissue (Western blot); type: in vivo, rat; details: 24 h after TNBS; supplemented (FIG. 7B lane 4 vs lane 3)
Description: Western blotting—analysis of Cytochrome c: Colon tissue samples were boiled and kept in sample buffer (Sigma-Aldrich Corp., St Louis, Mo.) immediately following isolation. For electrophoretic separation and immunodetection, the samples were reboiled, and subjected to SDS-PAGE followed by Western blot analysis. Briefly, separated proteins were transferred electrophoretically from the gel to a nitrocellulose membrane (Amersham International plc, Buckinghamshire, England). The membrane was blocked in TBS (0.15 M NaCl/10 mM Tris/HCl [pH7.4]) containing 5% (v/v) skim milk (Blotto), then incubated overnight with the primary antibody at 4° C. (diluted 1/1000 in Blotto). Following six washes in TBST (TBS containing 0.05% v/v Tween 20), the membrane was incubated for 2 hours at room temperature with the secondary antibody (diluted 1/1000 in Blotto). Immunoreactive bands were detected with ECL western blotting detection reagents and developed on film (Shilo et al., 2003). Separated proteins were transferred electrophoretically from the gel to a nitrocellulose membrane (Amersham International plc, Buckinghamshire, England). […] Immunoreactive bands were visualized by detection with ECL Western blotting detection reagents (ECL, Amersham Biosciences, Uppsala, Sweden) followed by exposure of film and quantitation by densitometry (Shilo et al., 2003).

[5] = test system: J774.2 macrophages; experiment: Type of cell death (annexin V-FITC / PI); type: cell-based, murine; details: 10 μM
Procedure: Experiments were performed on cells at 60% confluence.
Determination of type of cell death: Type of cell death was determined by dual staining with annexin V-FITC (Santa Cruz Biotechnology, Santa Cruz Calif., USA) and PI, and flow cytometric analysis. Cells were treated with 10 μM selenite for 24 h then collected and re-suspended in binding buffer (10 mM HEPES/NaOH, pH 7.4, 140 mM NaCl, 2.5 mM CaCl2). 2.5 μg/ml annexin V-FITC was added and cells were incubated for 30 min at room temperature, then 0.25 μg/ml PI was added and samples were analyzed by flow cytometry (FACSort, Becton Dickenson and. Co., San Jose, Calif. USA).

O=[Se](O)O [sodium selenite]
mitochondrial DNA in colon tissue, colitis-induced rats [1]: effectively protects
18S and GAPDH transcription [2]: remain unaffected
ROS production in resting macrophages ([3]; 10 μM (FIG. 16A columns b and d)): strongly inhibited
ROS (H2O2) production over the concentration range ([3]; 0.5-30 μM, resting J774.2 (FIG. 8A)): concentration-dependent reduction
ROS production in activated macrophages ([3]; LPS 10 ng/ml + INFγ 50 units/ml 24 h, then 10 μM (FIG. 16A)): strongly inhibited
inflammation-associated alterations of cytochrome c protein [4]: profound protection
cell death vs control ([5]; 24 hours (FIG. 15A)): increased cell death
character of cell death ([5]; 24 hours, annexin V-FITC and PI): necrotic rather than apoptotic death
